Laboratory results: PubChem BioAssay AID1159578 (Peter MacCallum Cancer Centre, 2015)

- Test: 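Knock-downs that alter how fast lymphatic endothelial cells migrate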 (primary screen)
- System: human lymphatic endothelial cells
- Knock-down reagent: siRNA pool against human genes, 40 nM
- Timing: 48 h after transfection
- Detection: 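High-content imaging of dye-stained cells in a scratch assay measures filled wound area and nuclei per well; duplicate means given as ratio to mock and robust z-score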
- Reading the numbers: migration robust z-score: higher = faster migration into the scratch; nuclei per well: higher = more cells in the well
- Call rule: 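Pools averaging fewer than 3300 nuclei are never called; remaining pools count as changed when migration robust z lies outside -2 to 2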
- Calls: active = migration changed; inactive = no migration change, or too few cells
The deposit covers about 18,000 reagents; shown is an unselected part. Of all reagents, about 1,030 (5.7%) got an active call. 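Inactive calls also include pools with fewer than 3300 nuclei, whose migration was not assessed.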 The raw values are shown without normalisation. A number with no mark means an inactive call. The numbers tell different reagents against one gene apart. Further read-outs or replicates are left out here.

ALG13 (GeneID 79868) #1 — migration robust z-score: -0.35; migration class with cell-count check: migration z between -2 and 2; enough cells; nuclei per well, duplicate mean: 6812
ALG13 (GeneID 79868) #2 — migration robust z-score: 0.65; migration class with cell-count check: migration z between -2 and 2; enough cells; nuclei per well, duplicate mean: 6154
RNF115 (GeneID 27246) — migration robust z-score: -0.13; migration class with cell-count check: migration z between -2 and 2; enough cells; nuclei per well, duplicate mean: 6258
OSCAR (GeneID 126014) — migration robust z-score: -0.88; migration class with cell-count check: migration z between -2 and 2; enough cells; nuclei per well, duplicate mean: 5404
BTNL8 (GeneID 79908) — migration robust z-score: 0.59; migration class with cell-count check: migration z between -2 and 2; enough cells; nuclei per well, duplicate mean: 6536
ARHGAP20 (GeneID 57569) — migration robust z-score: -1.56; migration class with cell-count check: migration z between -2 and 2; enough cells; nuclei per well, duplicate mean: 5407
ANGPTL4 (GeneID 51129) — migration robust z-score: -0.88; migration class with cell-count check: migration z between -2 and 2; enough cells; nuclei per well, duplicate mean: 5276
DPP6 (GeneID 1804) — migration robust z-score: -0.83; migration class with cell-count check: migration z between -2 and 2; enough cells; nuclei per well, duplicate mean: 5910

Records above whose target name begins with A or a (4):
ALG13 (GeneID 79868) #1 — migration robust z-score: -0.35; migration class with cell-count check: migration z between -2 and 2; enough cells; nuclei per well, duplicate mean: 6812
ALG13 (GeneID 79868) #2 — migration robust z-score: 0.65; migration class with cell-count check: migration z between -2 and 2; enough cells; nuclei per well, duplicate mean: 6154
ARHGAP20 (GeneID 57569) — migration robust z-score: -1.56; migration class with cell-count check: migration z between -2 and 2; enough cells; nuclei per well, duplicate mean: 5407
ANGPTL4 (GeneID 51129) — migration robust z-score: -0.88; migration class with cell-count check: migration z between -2 and 2; enough cells; nuclei per well, duplicate mean: 5276

The list goes on:
CCDC140 (GeneID 151278) — migration robust z-score: 1.21; migration class with cell-count check: migration z between -2 and 2; enough cells; nuclei per well, duplicate mean: 4244
TBC1D4 (GeneID 9882) — migration robust z-score: 0.76; migration class with cell-count check: migration z between -2 and 2; enough cells; nuclei per well, duplicate mean: 5700
FGF3 (GeneID 2248) — migration robust z-score: 1.27; migration class with cell-count check: migration z between -2 and 2; enough cells; nuclei per well, duplicate mean: 5924
PEAR1 (GeneID 375033) — migration robust z-score: 2.31 (active); migration class with cell-count check: migration z above 2; enough cells; nuclei per well, duplicate mean: 6323
